Assay results from the supplement of paper PMC10849652.
The other results are listed elsewhere or left out.

Amino acid sequences for entries named in this document (tags omitted). A change or cut given only in a name is not applied to a line headed by its entry.
UniProt Q9Y2Q3: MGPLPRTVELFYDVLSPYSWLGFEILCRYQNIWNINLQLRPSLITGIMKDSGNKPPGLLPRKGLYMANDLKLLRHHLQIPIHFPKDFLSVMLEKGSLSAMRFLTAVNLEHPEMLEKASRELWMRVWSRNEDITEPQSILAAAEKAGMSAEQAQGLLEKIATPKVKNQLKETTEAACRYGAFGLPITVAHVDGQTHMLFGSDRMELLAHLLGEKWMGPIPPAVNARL
UniProt P13984, whole entry, looked up: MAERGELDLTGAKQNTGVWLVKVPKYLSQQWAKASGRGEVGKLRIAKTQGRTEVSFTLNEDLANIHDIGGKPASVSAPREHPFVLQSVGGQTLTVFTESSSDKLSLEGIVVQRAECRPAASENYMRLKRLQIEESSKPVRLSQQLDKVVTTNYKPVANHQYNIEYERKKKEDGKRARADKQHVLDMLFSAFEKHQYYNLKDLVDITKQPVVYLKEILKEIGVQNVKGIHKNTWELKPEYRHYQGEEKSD
UniProt O94992, whole entry, looked up: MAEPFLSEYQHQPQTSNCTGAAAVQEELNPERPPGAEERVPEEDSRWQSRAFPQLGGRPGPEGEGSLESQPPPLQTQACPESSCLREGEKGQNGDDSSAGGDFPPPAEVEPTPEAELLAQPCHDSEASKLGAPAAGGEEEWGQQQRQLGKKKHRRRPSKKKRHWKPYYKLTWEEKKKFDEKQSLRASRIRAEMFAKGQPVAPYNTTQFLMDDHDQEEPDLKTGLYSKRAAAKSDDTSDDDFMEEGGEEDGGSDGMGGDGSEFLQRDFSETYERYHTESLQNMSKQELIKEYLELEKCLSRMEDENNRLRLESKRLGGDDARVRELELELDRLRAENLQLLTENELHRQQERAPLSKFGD
UniProt Q9BX10: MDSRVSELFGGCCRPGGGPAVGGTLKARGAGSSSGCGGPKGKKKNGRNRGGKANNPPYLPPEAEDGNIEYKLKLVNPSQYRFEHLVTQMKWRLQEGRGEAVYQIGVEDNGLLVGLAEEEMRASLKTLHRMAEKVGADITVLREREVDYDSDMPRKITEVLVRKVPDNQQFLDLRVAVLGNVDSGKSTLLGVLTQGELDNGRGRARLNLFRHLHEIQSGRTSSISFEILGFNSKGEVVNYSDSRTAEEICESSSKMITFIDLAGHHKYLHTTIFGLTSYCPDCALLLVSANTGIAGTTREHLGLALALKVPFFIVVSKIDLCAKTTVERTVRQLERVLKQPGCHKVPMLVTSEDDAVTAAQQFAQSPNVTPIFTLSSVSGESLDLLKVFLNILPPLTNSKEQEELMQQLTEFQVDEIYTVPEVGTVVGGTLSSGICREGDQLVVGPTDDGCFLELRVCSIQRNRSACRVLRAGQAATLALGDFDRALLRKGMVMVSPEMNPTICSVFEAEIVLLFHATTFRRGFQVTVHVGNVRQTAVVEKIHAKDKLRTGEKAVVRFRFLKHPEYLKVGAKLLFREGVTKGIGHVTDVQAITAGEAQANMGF
UniProt P04921: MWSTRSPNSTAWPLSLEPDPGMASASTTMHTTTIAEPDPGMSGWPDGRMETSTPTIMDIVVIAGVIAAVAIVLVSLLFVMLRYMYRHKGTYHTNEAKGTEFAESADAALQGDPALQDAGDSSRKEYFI
UniProt P51858: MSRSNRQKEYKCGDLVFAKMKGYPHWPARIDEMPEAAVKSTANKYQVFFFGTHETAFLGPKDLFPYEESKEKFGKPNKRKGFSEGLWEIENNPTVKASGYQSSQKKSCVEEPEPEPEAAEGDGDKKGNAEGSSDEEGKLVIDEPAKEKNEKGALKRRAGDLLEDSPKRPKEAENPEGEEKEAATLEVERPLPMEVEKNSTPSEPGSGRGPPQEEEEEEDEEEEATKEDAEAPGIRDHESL
UniProt P14317: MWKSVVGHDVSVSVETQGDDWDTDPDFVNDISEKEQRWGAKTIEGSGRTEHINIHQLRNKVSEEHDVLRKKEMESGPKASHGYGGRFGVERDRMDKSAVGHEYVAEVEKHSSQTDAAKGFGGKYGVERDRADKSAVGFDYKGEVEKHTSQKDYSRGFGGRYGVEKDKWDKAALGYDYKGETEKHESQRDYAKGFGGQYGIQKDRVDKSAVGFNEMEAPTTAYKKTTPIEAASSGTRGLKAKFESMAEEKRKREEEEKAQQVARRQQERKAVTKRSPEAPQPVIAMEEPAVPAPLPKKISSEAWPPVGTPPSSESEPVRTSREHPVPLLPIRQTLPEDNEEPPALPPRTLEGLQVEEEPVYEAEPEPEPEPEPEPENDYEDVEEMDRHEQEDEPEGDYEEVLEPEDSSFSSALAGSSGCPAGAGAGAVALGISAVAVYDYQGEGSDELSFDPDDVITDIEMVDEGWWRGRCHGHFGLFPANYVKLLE
UniProt P69891: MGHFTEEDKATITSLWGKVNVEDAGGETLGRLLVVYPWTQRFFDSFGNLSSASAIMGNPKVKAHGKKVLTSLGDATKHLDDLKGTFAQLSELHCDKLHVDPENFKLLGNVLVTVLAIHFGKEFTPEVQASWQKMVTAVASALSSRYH
UniProt P78347: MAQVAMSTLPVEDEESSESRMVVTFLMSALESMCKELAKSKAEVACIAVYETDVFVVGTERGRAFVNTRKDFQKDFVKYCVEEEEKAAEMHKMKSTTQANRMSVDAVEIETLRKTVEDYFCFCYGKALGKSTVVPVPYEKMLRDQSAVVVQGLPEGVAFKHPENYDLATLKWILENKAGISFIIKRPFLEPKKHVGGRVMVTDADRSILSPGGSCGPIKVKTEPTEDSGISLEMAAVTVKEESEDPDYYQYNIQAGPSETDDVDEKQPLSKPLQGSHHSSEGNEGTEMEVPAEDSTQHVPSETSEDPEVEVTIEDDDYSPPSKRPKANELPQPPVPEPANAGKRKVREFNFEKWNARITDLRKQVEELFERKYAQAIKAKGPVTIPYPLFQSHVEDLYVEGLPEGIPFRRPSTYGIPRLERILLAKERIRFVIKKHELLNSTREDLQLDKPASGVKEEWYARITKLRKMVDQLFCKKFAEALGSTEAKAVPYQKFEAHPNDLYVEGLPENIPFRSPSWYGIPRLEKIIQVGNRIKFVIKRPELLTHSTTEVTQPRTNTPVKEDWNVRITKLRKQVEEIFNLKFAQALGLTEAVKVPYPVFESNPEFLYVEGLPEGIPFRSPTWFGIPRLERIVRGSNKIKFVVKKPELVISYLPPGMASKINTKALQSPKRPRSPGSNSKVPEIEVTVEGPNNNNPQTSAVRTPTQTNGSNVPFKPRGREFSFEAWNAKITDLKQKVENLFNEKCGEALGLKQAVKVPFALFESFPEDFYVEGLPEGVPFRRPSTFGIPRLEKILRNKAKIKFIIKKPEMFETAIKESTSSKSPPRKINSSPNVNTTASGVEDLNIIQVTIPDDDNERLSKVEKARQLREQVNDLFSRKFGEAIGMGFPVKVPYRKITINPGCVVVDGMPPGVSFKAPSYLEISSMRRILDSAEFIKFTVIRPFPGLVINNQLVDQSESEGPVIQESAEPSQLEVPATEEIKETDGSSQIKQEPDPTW
UniProt P02100: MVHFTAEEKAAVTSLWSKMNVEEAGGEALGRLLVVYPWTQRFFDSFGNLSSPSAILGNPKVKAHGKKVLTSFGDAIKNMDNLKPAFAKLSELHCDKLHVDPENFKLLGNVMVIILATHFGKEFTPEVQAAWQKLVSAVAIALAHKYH
UniProt Q13888: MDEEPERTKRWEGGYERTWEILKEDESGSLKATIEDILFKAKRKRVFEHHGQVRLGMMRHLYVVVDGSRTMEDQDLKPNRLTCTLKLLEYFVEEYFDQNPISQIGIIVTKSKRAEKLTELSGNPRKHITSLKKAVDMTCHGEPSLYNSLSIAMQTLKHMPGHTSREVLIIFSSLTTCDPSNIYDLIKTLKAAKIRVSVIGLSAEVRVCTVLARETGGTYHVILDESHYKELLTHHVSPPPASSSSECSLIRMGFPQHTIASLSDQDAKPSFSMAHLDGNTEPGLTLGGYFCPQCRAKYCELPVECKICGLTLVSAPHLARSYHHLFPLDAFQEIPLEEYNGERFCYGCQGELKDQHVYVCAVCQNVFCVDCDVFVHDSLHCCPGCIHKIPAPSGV
UniProt Q9Y3E1: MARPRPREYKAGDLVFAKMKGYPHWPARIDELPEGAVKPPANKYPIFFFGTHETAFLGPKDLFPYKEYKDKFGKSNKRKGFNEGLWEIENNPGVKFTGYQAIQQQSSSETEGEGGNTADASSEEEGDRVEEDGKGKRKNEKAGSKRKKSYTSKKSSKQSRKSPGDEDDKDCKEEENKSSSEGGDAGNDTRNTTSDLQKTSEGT
UniProt Q9BSH5: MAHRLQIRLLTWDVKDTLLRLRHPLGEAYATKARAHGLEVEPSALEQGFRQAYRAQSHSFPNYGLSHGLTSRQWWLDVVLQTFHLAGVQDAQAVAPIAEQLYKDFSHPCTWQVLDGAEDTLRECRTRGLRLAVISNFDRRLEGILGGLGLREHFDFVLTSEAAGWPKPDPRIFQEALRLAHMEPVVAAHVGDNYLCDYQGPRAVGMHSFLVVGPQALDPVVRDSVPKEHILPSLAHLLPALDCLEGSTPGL
UniProt P53701: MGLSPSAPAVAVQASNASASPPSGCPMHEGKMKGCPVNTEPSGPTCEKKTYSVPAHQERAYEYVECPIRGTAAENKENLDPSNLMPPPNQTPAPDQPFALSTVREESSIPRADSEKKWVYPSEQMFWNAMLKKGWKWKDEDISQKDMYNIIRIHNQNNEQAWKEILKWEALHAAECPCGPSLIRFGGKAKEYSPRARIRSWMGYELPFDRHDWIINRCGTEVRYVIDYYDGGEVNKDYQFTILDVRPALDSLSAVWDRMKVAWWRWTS

Key:
Assay in all cases: log2 fold change, soluble protein after heating vs DMSO (PISA); higher = thermal stabilisation; K562 cells, 10 uM, 30 min; active = over 0.2 and 3.5 SD of the protein, either way, in both replicates (recomputed)
[1] = compound: CS(=O)(=O)c1ccc(-c2cnc(N)c(C(=O)Nc3ccccc3)n2)cc1
Outline: (§1)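 K562 cells (2×10^6 cells/mL) were treated with 10 μM compound for 30 min, and aliquots were heated for 3 min over 48°C-58°C. Pooled aliquots were extracted in PBS with 0.5% NP-40 at 4°C, and the supernatant after 21,000xg for 90 min was measured by TMTpro 16plex LC-MS/MS with channel sums equalised. Reported thermal stability, relative to control samples and from duplicates, is a log2 fold change.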

crizotinib = compound: C[C@@H](Oc1cc(-c2cnn(C3CCNCC3)c2)cnc1N)c1c(Cl)ccc(F)c1Cl [crizotinib]
Outline: as §1

[2] = compound: C[C@@H]1COCCN1C2=NC(=NC(=C2)C3(CC3)S(=O)(=O)C)C4=C5C=CNC5=CC=C4
Outline: as §1

[3] = compound: C[C@H](C1=CC=C(C=C1)C(=O)NC2=C3C=CNC3=NC=C2)N
Outline: as §1

duvelisib = compound: C[C@H](Nc1ncnc2nc[nH]c12)c1cc2cccc(Cl)c2c(=O)n1-c1ccccc1 [duvelisib]
Outline: as §1

gandotinib = compound: Cc1cc(Nc2cc(CN3CCOCC3)c3nc(C)c(Cc4ccc(Cl)cc4F)n3n2)n[nH]1 [gandotinib]
Outline: as §1

tozasertib = compound: Cc1cc(Nc2cc(N3CCN(C)CC3)nc(Sc3ccc(NC(=O)C4CC4)cc3)n2)n[nH]1 [tozasertib]
Outline: as §1

[4] = compound: Cc1cc(SCc2sc(-c3ccc(C(F)(F)F)cc3)nc2C)ccc1OCC(=O)O
Outline: as §1

doramapimod = compound: Cc1ccc(-n2nc(C(C)(C)C)cc2NC(=O)Nc2ccc(OCCN3CCOCC3)c3ccccc23)cc1 [doramapimod]
Outline: as §1

ispinesib = compound: Cc1ccc(C(=O)N(CCCN)[C@@H](c2nc3cc(Cl)ccc3c(=O)n2Cc2ccccc2)C(C)C)cc1 [ispinesib]
Outline: as §1

bafetinib = compound: Cc1ccc(NC(=O)c2ccc(CN3CC[C@H](N(C)C)C3)c(C(F)(F)F)c2)cc1Nc1nccc(-c2cncnc2)n1 [bafetinib]
Outline: as §1

[5] = compound: Cc1cccc(CC(=O)N2CCc3c2ccc(-c2cn(C)c4ncnc(N)c24)c3F)n1
Outline: as §1

nilotinib = compound: Cc1cn(-c2cc(NC(=O)c3ccc(C)c(Nc4nccc(-c5cccnc5)n4)c3)cc(C(F)(F)F)c2)cn1 [nilotinib]
Outline: as §1

[6] = compound: Cc1nc(Nc2n[nH]c3c2CN(C(=O)N[C@H](CN(C)C)c2ccccc2)C3(C)C)c2sccc2n1
Outline: as §1

dasatinib = compound: Cc1nc(Nc2ncc(C(=O)Nc3c(C)cccc3Cl)s2)cc(N2CCN(CCO)CC2)n1 [dasatinib]
Outline: as §1

[7] = compound: Cc1ncc(-c2ccnc(Nc3ccc(S(C)(=O)=O)cc3)n2)n1C(C)C
Outline: as §1

[8] = compound: Cn1cc(-c2ccc3c(c2)CCN3C(=O)Cc2cccc(C(F)(F)F)c2)c2c(N)ncnc21
Outline: as §1

[9] = compound: Cn1cc(-c2ccc3nnc(C(F)(F)c4ccc5ncccc5c4)n3n2)cn1
Outline: as §1

tipifarnib = compound: Cn1cncc1[C@@](N)(c1ccc(Cl)cc1)c1ccc2c(c1)c(-c1cccc(Cl)c1)cc(=O)n2C [tipifarnib]
Outline: as §1

mubritinib = compound: FC(F)(F)c1ccc(/C=C/c2nc(COc3ccc(CCCCn4ccnn4)cc3)co2)cc1 [mubritinib]
Outline: as §1

Measured: log2 fold change

GSTK1 (UniProt Q9Y2Q3)
inactive: [1] 0.02 | crizotinib 0.116 | [2] 0.151 | [3] -0.02 | duvelisib 0.06 | gandotinib -0.033 | tozasertib -0.01 | [4] 0.036 | doramapimod 0.031 | ispinesib 0.177 | bafetinib 0.023 | [5] 0.018 | nilotinib -0.008 | [6] -0.018 | dasatinib -0.051 | [7] 0.013 | [8] 0.118 | [9] 0.047 | tipifarnib -0.015 | mubritinib 0.055

GTF2F2 (UniProt P13984)
inactive: [1] 0 | crizotinib -0.019 | [2] 0.047 | [3] -0.068 | duvelisib 0.047 | gandotinib -0.051 | tozasertib -0.034 | [4] 0.009 | doramapimod -0.01 | ispinesib 0.005 | bafetinib -0.004 | [5] 0.018 | nilotinib 0 | [6] 0.005 | dasatinib -0.049 | [7] -0.013 | [8] 0.029 | [9] -0.002 | tipifarnib -0.004 | mubritinib 0.027

HEXIM1 (UniProt O94992)
inactive: [1] -0.003 | crizotinib 0.024 | [2] -0.018 | [3] 0.061 | duvelisib 0.063 | gandotinib 0.167 | tozasertib 0.044 | [4] -0.001 | doramapimod 0.014 | ispinesib -0.02 | bafetinib 0.006 | [5] -0.087 | nilotinib 0.043 | [6] 0.046 | dasatinib 0.015 | [7] 0.032 | [8] 0.043 | [9] -0.035 | tipifarnib 0.006 | mubritinib 0.029

GTPBP2 (UniProt Q9BX10)
inactive: [1] -0.036 | crizotinib -0.075 | [2] 0 | [3] 0.05 | duvelisib -0.011 | gandotinib -0.086 | tozasertib -0.041 | [4] 0.029 | doramapimod 0.078 | ispinesib -0.203 | bafetinib 0.045 | [5] 0.108 | nilotinib -0.098 | [6] -0.104 | dasatinib -0.059 | [7] 0.025 | [8] -0.01 | [9] -0.083 | tipifarnib 0.033 | mubritinib -0.136

GYPC (UniProt P04921)
inactive: [1] 0.005 | crizotinib 0.189 | [2] 0.09 | [3] 0.244 | duvelisib 0.126 | gandotinib -0.028 | tozasertib 0.055 | [4] -0.059 | doramapimod -0.034 | ispinesib 0.177 | bafetinib 0 | [5] -0.08 | nilotinib -0.009 | [6] 0.039 | dasatinib 0.073 | [7] 0.034 | [8] -0.127 | [9] 0.015 | tipifarnib 0.134 | mubritinib 0

Taken from the entries so far (two entries):
GTPBP2 (UniProt Q9BX10)
inactive: [1] -0.036 | crizotinib -0.075 | [2] 0 | [3] 0.05 | duvelisib -0.011 | gandotinib -0.086 | tozasertib -0.041 | [4] 0.029 | doramapimod 0.078 | ispinesib -0.203 | bafetinib 0.045 | [5] 0.108 | nilotinib -0.098 | [6] -0.104 | dasatinib -0.059 | [7] 0.025 | [8] -0.01 | [9] -0.083 | tipifarnib 0.033 | mubritinib -0.136

GYPC (UniProt P04921)
inactive: [1] 0.005 | crizotinib 0.189 | [2] 0.09 | [3] 0.244 | duvelisib 0.126 | gandotinib -0.028 | tozasertib 0.055 | [4] -0.059 | doramapimod -0.034 | ispinesib 0.177 | bafetinib 0 | [5] -0.08 | nilotinib -0.009 | [6] 0.039 | dasatinib 0.073 | [7] 0.034 | [8] -0.127 | [9] 0.015 | tipifarnib 0.134 | mubritinib 0

Remaining list, next part

HERC2 (UniProt O95714)
inactive: [1] 0.186 | crizotinib -0.001 | [2] -0.084 | [3] 0.378 | duvelisib -0.058 | gandotinib 0.044 | tozasertib -0.034 | [4] 0.095 | doramapimod 0.263 | ispinesib -0.425 | bafetinib 0 | [5] -0.085 | nilotinib -0.015 | [6] 0.032 | dasatinib 0.014 | [7] 0.079 | [8] -0.229 | [9] -0.061 | tipifarnib -0.076 | mubritinib -0.061

HDGF (UniProt P51858)
inactive: [1] 0.026 | crizotinib -0.007 | [2] -0.01 | [3] -0.031 | duvelisib -0.009 | gandotinib -0.023 | tozasertib -0.018 | [4] -0.064 | doramapimod -0.041 | ispinesib -0.031 | bafetinib -0.079 | [5] -0.008 | nilotinib -0.025 | [6] -0.058 | dasatinib -0.008 | [7] 0 | [8] 0.017 | [9] -0.017 | tipifarnib -0.042 | mubritinib 0.022

HCLS1 (UniProt P14317)
inactive: [1] 0.015 | crizotinib 0 | [2] 0.04 | [3] -0.032 | duvelisib 0.025 | gandotinib 0.002 | tozasertib -0.02 | [4] -0.049 | doramapimod -0.003 | ispinesib -0.028 | bafetinib -0.055 | [5] -0.044 | nilotinib 0.026 | [6] -0.007 | dasatinib 0.038 | [7] -0.017 | [8] -0.014 | [9] 0.01 | tipifarnib -0.015 | mubritinib 0.034

GSTZ1 (UniProt G3V4T6)
inactive: [1] 0.046 | crizotinib -0.041 | [2] 0.057 | [3] -0.047 | duvelisib -0.033 | gandotinib -0.017 | tozasertib -0.016 | [4] 0.062 | doramapimod 0.01 | ispinesib -0.023 | bafetinib 0 | [5] -0.042 | nilotinib -0.016 | [6] -0.002 | dasatinib -0.022 | [7] -0.038 | [8] 0.077 | [9] -0.031 | tipifarnib 0.014 | mubritinib 0.032

HBG1 (UniProt P69891)
inactive: [1] 0.002 | crizotinib 0.157 | [2] 0.232 | [3] -0.076 | duvelisib 0.101 | gandotinib 0.068 | tozasertib 0.032 | [4] 0.01 | doramapimod -0.028 | ispinesib 0.168 | bafetinib -0.027 | [5] 0.056 | nilotinib 0.005 | [6] 0.022 | dasatinib 0.046 | [7] 0 | [8] 0.141 | [9] 0.162 | tipifarnib -0.159 | mubritinib 0.036

GTF2I (UniProt P78347)
inactive: [1] -0.038 | crizotinib -0.009 | [2] -0.081 | [3] 0.28 | duvelisib 0.066 | gandotinib 0.04 | tozasertib 0.203 | [4] 0.005 | doramapimod 0.18 | ispinesib -0.393 | bafetinib 0.006 | [5] -0.021 | nilotinib 0.062 | [6] -0.148 | dasatinib -0.013 | [7] -0.139 | [8] -0.116 | [9] -0.062 | tipifarnib 0.098 | mubritinib 0.009

HBE1 (UniProt P02100)
inactive: [1] -0.033 | crizotinib 0.142 | [2] 0.265 | [3] -0.085 | duvelisib 0.116 | gandotinib 0.037 | tozasertib 0.006 | [4] 0.024 | doramapimod -0.007 | ispinesib 0.131 | bafetinib -0.046 | [5] -0.007 | nilotinib 0.001 | [6] 0.026 | dasatinib 0.057 | [7] -0.004 | [8] 0.123 | [9] 0.144 | tipifarnib -0.083 | mubritinib 0.015

GTF2H2 (UniProt Q13888)
inactive: [1] 0.009 | crizotinib -0.055 | [2] 0.005 | [3] -0.009 | duvelisib -0.024 | gandotinib -0.078 | tozasertib 0.101 | [4] -0.013 | doramapimod -0.028 | ispinesib -0.021 | bafetinib -0.012 | [5] 0.043 | nilotinib 0.016 | [6] -0.066 | dasatinib 0.03 | [7] -0.001 | [8] 0.057 | [9] -0.039 | tipifarnib 0.028 | mubritinib -0.026

HDGFL3 (UniProt Q9Y3E1)
inactive: [1] -0.031 | crizotinib 0.088 | [2] -0.006 | [3] 0.001 | duvelisib 0.019 | gandotinib 0.046 | tozasertib -0.031 | [4] -0.046 | doramapimod -0.041 | ispinesib -0.016 | bafetinib -0.037 | [5] -0.162 | nilotinib -0.023 | [6] -0.008 | dasatinib 0.035 | [7] -0.007 | [8] -0.069 | [9] 0.035 | tipifarnib 0.055 | mubritinib 0.016

HDHD3 (UniProt Q9BSH5)
inactive: [1] 0.017 | crizotinib 0.036 | [2] 0.137 | [3] 0.001 | duvelisib 0.048 | gandotinib 0.013 | tozasertib 0.007 | [4] 0.003 | doramapimod -0.027 | ispinesib 0.009 | bafetinib -0.048 | [5] 0.076 | nilotinib -0.031 | [6] 0.02 | dasatinib 0.094 | [7] -0.052 | [8] 0.059 | [9] 0.068 | tipifarnib 0.011 | mubritinib 0.007

HCCS (UniProt P53701)
inactive: [1] 0.009 | crizotinib 0.004 | [2] 0.026 | [3] -0.012 | duvelisib -0.016 | gandotinib -0.051 | tozasertib -0.044 | [4] -0.053 | doramapimod -0.001 | ispinesib -0.063 | bafetinib -0.154 | [5] -0.053 | nilotinib -0.026 | [6] 0.004 | dasatinib 0.018 | [7] -0.029 | [8] 0.036 | [9] 0.067 | tipifarnib -0.009 | mubritinib 0.062
